According to PMC12848007:
No constants are given. Whether binding was seen depends on the method and setting. In cells and extracts the contact can be indirect. Some binding calls cover weakened binding; strength is not graded here.

Chains of the proteins cited; added tags and fusions are not shown.
UniProt Q13620: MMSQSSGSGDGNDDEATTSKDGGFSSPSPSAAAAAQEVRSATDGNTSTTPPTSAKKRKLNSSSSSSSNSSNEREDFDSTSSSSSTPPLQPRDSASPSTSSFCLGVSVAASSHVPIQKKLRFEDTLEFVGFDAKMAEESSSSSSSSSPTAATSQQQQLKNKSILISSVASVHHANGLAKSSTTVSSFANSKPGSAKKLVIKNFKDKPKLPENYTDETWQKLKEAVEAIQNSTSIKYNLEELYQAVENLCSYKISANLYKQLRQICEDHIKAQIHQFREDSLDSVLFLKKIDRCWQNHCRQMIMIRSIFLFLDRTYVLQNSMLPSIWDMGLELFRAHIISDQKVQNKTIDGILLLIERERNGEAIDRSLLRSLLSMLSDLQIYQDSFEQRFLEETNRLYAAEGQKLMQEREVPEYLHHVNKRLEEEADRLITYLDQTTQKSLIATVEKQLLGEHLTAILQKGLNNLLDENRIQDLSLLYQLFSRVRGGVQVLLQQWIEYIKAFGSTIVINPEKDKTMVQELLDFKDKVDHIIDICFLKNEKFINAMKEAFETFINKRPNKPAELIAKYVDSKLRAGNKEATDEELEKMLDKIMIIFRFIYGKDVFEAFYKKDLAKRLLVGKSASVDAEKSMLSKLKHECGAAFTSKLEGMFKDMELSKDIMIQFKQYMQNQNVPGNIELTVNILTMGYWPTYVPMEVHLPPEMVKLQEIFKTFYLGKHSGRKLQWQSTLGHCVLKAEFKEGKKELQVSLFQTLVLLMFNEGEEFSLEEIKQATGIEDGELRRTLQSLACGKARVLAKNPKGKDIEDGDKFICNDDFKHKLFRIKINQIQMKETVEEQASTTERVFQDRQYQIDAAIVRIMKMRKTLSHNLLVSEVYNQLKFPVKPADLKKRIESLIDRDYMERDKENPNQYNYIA
UniProt Q16531: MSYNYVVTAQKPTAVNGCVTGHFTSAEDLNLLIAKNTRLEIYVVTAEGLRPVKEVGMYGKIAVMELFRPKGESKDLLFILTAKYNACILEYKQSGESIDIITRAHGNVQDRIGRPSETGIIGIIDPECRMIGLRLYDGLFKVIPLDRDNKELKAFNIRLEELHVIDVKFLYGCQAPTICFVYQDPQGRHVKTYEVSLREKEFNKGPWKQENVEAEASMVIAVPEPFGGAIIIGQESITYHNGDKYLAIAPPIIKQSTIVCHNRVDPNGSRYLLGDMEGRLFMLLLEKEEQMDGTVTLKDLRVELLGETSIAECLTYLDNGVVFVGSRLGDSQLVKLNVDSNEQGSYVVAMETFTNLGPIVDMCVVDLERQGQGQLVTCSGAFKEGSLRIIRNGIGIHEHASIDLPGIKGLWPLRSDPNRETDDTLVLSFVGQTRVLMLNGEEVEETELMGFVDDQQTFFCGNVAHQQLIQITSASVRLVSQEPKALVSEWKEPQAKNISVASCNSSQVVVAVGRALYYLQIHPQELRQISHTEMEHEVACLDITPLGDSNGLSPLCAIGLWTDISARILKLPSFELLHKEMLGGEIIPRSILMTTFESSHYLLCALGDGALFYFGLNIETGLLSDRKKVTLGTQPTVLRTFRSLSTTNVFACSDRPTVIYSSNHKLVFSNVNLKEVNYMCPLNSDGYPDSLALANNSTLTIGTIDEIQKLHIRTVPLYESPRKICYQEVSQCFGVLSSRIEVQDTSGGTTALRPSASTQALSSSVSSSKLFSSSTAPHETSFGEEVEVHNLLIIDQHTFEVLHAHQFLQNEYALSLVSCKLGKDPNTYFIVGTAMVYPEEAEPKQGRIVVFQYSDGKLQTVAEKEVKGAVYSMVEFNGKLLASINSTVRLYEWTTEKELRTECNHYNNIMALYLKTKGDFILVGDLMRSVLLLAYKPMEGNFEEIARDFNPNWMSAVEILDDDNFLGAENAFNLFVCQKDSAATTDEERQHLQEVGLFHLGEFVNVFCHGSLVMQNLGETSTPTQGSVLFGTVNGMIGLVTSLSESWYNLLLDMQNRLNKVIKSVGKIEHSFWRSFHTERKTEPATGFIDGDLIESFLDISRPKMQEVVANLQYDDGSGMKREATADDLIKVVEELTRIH
UniProt P35637: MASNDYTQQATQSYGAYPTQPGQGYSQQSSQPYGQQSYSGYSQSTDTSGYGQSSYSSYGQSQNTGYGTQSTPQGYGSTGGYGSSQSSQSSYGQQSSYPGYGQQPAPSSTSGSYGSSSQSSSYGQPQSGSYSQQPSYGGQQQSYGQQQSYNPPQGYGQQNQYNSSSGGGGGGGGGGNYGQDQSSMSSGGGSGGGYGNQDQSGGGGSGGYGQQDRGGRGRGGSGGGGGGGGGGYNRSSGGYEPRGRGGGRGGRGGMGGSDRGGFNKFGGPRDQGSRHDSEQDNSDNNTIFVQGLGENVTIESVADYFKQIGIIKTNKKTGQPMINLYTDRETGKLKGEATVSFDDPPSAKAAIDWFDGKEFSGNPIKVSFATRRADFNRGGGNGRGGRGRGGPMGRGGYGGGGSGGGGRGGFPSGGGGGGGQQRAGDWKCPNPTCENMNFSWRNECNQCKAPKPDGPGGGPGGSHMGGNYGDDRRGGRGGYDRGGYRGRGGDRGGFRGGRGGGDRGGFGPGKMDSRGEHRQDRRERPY
UniProt Q9NZJ0: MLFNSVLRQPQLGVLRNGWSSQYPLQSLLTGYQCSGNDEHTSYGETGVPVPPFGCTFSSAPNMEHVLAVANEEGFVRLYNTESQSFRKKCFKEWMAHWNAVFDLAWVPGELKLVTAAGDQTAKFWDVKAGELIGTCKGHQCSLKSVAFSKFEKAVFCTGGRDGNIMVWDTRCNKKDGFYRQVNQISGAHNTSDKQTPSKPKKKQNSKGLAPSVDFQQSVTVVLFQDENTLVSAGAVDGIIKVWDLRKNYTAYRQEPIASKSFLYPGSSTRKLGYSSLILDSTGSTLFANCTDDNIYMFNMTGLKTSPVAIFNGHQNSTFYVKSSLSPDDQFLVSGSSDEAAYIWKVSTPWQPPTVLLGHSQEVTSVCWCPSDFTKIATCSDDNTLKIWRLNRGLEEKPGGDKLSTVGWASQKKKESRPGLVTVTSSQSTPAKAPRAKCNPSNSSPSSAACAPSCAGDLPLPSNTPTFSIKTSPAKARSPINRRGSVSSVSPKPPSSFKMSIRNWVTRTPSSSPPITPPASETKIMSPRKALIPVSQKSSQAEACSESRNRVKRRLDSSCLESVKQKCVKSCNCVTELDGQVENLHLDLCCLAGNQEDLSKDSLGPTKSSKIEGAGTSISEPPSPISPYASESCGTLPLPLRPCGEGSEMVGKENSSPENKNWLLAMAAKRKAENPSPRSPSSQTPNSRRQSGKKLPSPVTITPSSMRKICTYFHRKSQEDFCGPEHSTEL

The substances below were run against Flag-tagged CUL4B (human) (UniProt Q13620) (assay: co-IP; Flag-tagged CUL4B transfected into Huh7 cells; immunoprecipitation with anti-Flag M2 affinity resin, then western blotting).

binding | Substance
binds | DDB1 (from UniProt Q16531 1-1140)
binds | Fused in sarcoma (FUS) (from UniProt P35637 1-526)
binds | DTL (from UniProt Q9NZJ0 1-730)
